Measurements reported in patent US20220054447A1, “CANNABIS COMPOSITIONS AND METHODS” (priority 2018, published 2022).

Experiments:
[1] = Trial 10: collection of cannabis vapor at 210 °C using glass fiber filter pads; conditions: for Cannabinoids in oil by HPLC, sample N11 (Cannabis Vapor In Methanol): RPC 293753-04; for Cannabinoids in oil by HPLC, Client Sample ID N11: RPC Sample ID 293753-04; for Cannabinoids in oil by HPLC, Client Sample ID P11: RPC Sample ID 293753-12; for Terpenes in cannabis oil, Client Sample ID N01: RPC Sample ID 293753-01; for Terpenes in cannabis oil, Client Sample ID N03: RPC Sample ID 293753-03; for Cannabinoids in oil by HPLC, sample N12 (Cannabis Vapor In Methanol): RPC 293753-05; for Cannabinoids in oil by HPLC, Client Sample ID N12: RPC Sample ID 293753-05
[2] = Trial 3: effect of solvents on terpene recoveries from a gas standard; conditions: for Terpenes, concentration in sample C02: terpenes in ethanol, RPC 286508-2, RL 0.0001; for Terpenes, concentration in sample C01: terpenes in ethanol-hexane, RPC 286508-1, RL 0.0001; for Terpenes, concentration in sample C03: terpenes in hexane, RPC 286508-3, RL 0.0001
[3] = RL 0.001, Trial 10 vapor 210° C., first trap (filter pad extract)
[4] = Cannabis Vapor In Methanol, RL 0.001
[5] = Cannabis Vapor In Hexane, RL 0.001
[6] = RL 0.001, Trial 10, trap after filter pad

Molecule	Terpenes, concentration in sample C02 [2] [%]	Terpenes, concentration in sample C01 [2] [%]	Terpenes, concentration in sample C03 [2] [%]	Terpenes in cannabis oil, Client Sample ID N01 [1, 5] [mg/mL]	Terpenes in cannabis oil, Client Sample ID N03 [1, 5] [mg/mL]	also measured
C=C(C)[C@@H]1CCC(C)=C[C@H]1c1c(O)cc(CCCCC)cc1O [CBD, cannabidiol, reference compound]	–	–	–	–	–	Cannabinoids in oil by HPLC, sample N11 (Cannabis Vapor In Methanol) [1, 3]: 0.123 mg/mL; Cannabinoids in oil by HPLC, Client Sample ID N11 [1, 4]: 0.123 mg/mL; Cannabinoids in oil by HPLC, Client Sample ID P11 [1, 4]: 0.088 mg/mL
C=CC(C)(O)CC/C=C(/C)CCC=C(C)C (stereo not drawn) [Cis-nerolidol]	<0.0001	<0.0001	<0.0001	<0.001	<0.001	–
CC1=CCC2C(C1)C2(C)C (stereo not drawn) [3-carene]	<0.0001	<0.0001	<0.0001	<0.001	<0.001	–
CC12CCC(C1)C(C)(C)C2O (stereo not drawn) [Fenchol]	<0.0001	<0.0001	<0.0001	<0.001	<0.001	–
C=C(C)[C@@H]1CCC(C)=C[C@H]1c1c(O)cc(CCCCC)c(C(=O)O)c1O [CBDA, cannabidiolic acid]	–	–	–	–	–	Cannabinoids in oil by HPLC, sample N11 (Cannabis Vapor In Methanol) [1, 3]: 0.003 mg/mL; Cannabinoids in oil by HPLC, Client Sample ID N11 [1, 4]: 0.003 mg/mL; Cannabinoids in oil by HPLC, Client Sample ID P11 [1, 4]: 0.002 mg/mL
CC1=CCC2CC1C2(C)C (stereo not drawn) [Alpha pinene]	<0.0001	0.0002	0.0002	<0.001	<0.001	–
C=C1CCC2CC1C2(C)C (stereo not drawn) [Beta pinene]	<0.0001	0.0002	0.0002	<0.001	<0.001	–
CC(C)=CCC[C@](C)(O)[C@@H]1CC=C(C)CC1 [Alpha-bisabolol]	<0.0001	<0.0001	<0.0001	0.005	<0.001	–
CCCCCc1cc2c(c(O)c1C(=O)O)[C@@H]1C=C(C)CC[C@H]1C(C)(C)O2 [THCA, tetrahydrocannabinolic acid]	–	–	–	–	–	Cannabinoids in oil by HPLC, sample N12 (Cannabis Vapor In Methanol) [1, 6]: <0.001 mg/mL; Cannabinoids in oil by HPLC, Client Sample ID N12 [1, 4]: <0.001 mg/mL; Cannabinoids in oil by HPLC, Client Sample ID P11 [1, 4]: 0.002 mg/mL
CCCCCc1cc(O)c(C/C=C(\C)CCC=C(C)C)c(O)c1 [CBG, cannabigerol]	–	–	–	–	–	Cannabinoids in oil by HPLC, sample N11 (Cannabis Vapor In Methanol) [1, 3]: 0.010 mg/mL; Cannabinoids in oil by HPLC, Client Sample ID N11 [1, 4]: 0.010 mg/mL; Cannabinoids in oil by HPLC, Client Sample ID P11 [1, 4]: 0.012 mg/mL
C=CC(=C)CCC=C(C)C [Myrcene]	<0.0001	<0.0001	<0.0001	<0.001	<0.001	–
C=C1CCC2(C(C)C)CC12 (stereo not drawn) [Sabinene]	<0.0001	<0.0001	<0.0001	<0.001	<0.001	–
CCCCCc1cc(O)c2c(c1)OC(C)(C)c1ccc(C)cc1-2 [CBN, cannabinol]	–	–	–	–	–	Cannabinoids in oil by HPLC, sample N11 (Cannabis Vapor In Methanol) [1, 3]: 0.057 mg/mL; Cannabinoids in oil by HPLC, Client Sample ID N11 [1, 4]: 0.057 mg/mL; Cannabinoids in oil by HPLC, Client Sample ID P11 [1, 4]: 0.032 mg/mL
C[C@H]1CC[C@@H](C(C)(C)O)CC2=C1CC[C@@H]2C [Guaiol]	<0.0001	<0.0001	<0.0001	<0.001	<0.001	–
CCCCCc1cc(O)c2c(c1)OC(C)(CCC=C(C)C)C=C2 (stereo not drawn) [CBC, cannabichromene]	–	–	–	–	–	Cannabinoids in oil by HPLC, sample N11 (Cannabis Vapor In Methanol) [1, 3]: 0.009 mg/mL; Cannabinoids in oil by HPLC, Client Sample ID N11 [1, 4]: 0.009 mg/mL; Cannabinoids in oil by HPLC, Client Sample ID P11 [1, 4]: 0.010 mg/mL
C=C/C(C)=C/CC=C(C)C [Trans-ocimene]	<0.0001	<0.0001	<0.0001	<0.001	<0.001	–
C=CC(C)(O)CCC=C(C)C (stereo not drawn) [Linalool]	<0.0001	<0.0001	<0.0001	0.001	<0.001	–
C=C(C)[C@H]1CC=C(C)CC1 [Limonene]	<0.0001	<0.0001	<0.0001	<0.001	<0.001	–
CCCCCc1cc(O)c(C/C=C(\C)CCC=C(C)C)c(O)c1C(=O)O [CBGA, cannabigerolic acid]	–	–	–	–	–	Cannabinoids in oil by HPLC, sample N11 (Cannabis Vapor In Methanol) [1, 3]: 0.001 mg/mL; Cannabinoids in oil by HPLC, sample N12 (Cannabis Vapor In Methanol) [1, 6]: <0.001 mg/mL; Cannabinoids in oil by HPLC, Client Sample ID N11 [1, 4]: 0.001 mg/mL; Cannabinoids in oil by HPLC, Client Sample ID N12 [1, 4]: <0.001 mg/mL; Cannabinoids in oil by HPLC, Client Sample ID P11 [1, 4]: <0.001 mg/mL; Cannabinoids in oil by HPLC, Client Sample ID P12 ([1]; RPC Sample ID 293753-13, Cannabis Vapor In Methanol, RL 0.001): 0.001 mg/mL
CC1(C)C2CCC1(C)C(O)C2 (stereo not drawn) [Borneol]	<0.0001	<0.0001	<0.0001	<0.001	<0.001	–
C/C1=C\CC/C(C)=C/CC(C)(C)/C=C/C1 [Humulene]	<0.0001	<0.0001	<0.0001	0.001	<0.001	–
Caryophyllene	<0.0001	<0.0001	<0.0001	0.003	<0.001	Terpenes in cannabis oil, sample N01 (Cannabis Vapor In Hexane) ([1]; RPC 293753-01, RL 0.001, Trial 10 vapor 210° C., first trap (filter pad extract)): 0.003 mg/mL; Terpenes in cannabis oil, sample N02 (Cannabis Vapor In Hexane) ([1]; RPC 293753-02, RL 0.001, Trial 10, trap after filter pad): <0.001 mg/mL; Terpenes in cannabis oil, sample N03 (Cannabis Vapor In Hexane) ([1]; RPC 293753-03, RL 0.001, Trial 10, trap after filter pad): <0.001 mg/mL; Terpenes in cannabis oil, Client Sample ID N02 ([1]; RPC Sample ID 293753-02, Cannabis Vapor In Hexane, RL 0.001): <0.001 mg/mL; Terpenes in cannabis oil, Client Sample ID P01 ([1]; RPC Sample ID 293753-09, Cannabis Vapor In Hexane, RL 0.001): 0.002 mg/mL; Terpenes in cannabis oil, Client Sample ID P02 ([1]; RPC Sample ID 293753-10, Cannabis Vapor In Hexane, RL 0.001): <0.001 mg/mL; Terpenes in cannabis oil, Client Sample ID P03 ([1]; RPC Sample ID 293753-11, Cannabis Vapor In Hexane, RL 0.001): <0.001 mg/mL; Mass recovered from vapor ([1]; Trial 10, terpenes, broken pellets 232.3 mg, 210° C., 6 minutes, 1 filter pad and 2 impingers, hexane): 0.03 mg
CC12CCC(CC1)C(C)(C)O2 [Eucalyptol]	<0.0001	<0.0001	<0.0001	<0.001	<0.001	–
CC1=CCC(=C(C)C)CC1 [Terpinolene]	<0.0001	<0.0001	<0.0001	<0.001	<0.001	–
